# In publication PMC7385626 (Scientific Reports, 2020):
# Tests used:
# Assay in all cases: BrdU Cell Proliferation Assay (BCPA)
# HT29 = assay type: cell-based, human
# Text: (§1) The antiproliferative activities of Ag(I) molecules and the starting molecules of the parent molecules, N-bishydeten and [Ag(CN)2]^− compound, on cells, were monitored utilizing by the BrdU Cell Proliferation Assay (BCPA) (Fig. 6).
# (§2) The antiproliferative activity of the 2, 3, 4, [Ag(CN)2]^− and 5FU against various cell lines (HeLa ATCC CCL-2, C6 cells ATCC CCL-107, HT29 ATCC HTB-38, and Vero ATCC CCL-81) were preserved and maintained in Dulbecco’s modified eagle’s medium, supplemented with %2 antibiotic (Streptomycin-Penicillin) solution and 10% fetal bovine serum.
# (§3) The cell suspension including 5×10^3 cells in 100 µL was supplied into the well cell plates (96-well cell). The therapies of these cells with 2, 3, 4 and [Ag(CN)2]^− in DMSO (max 0.1% DMSO) and 5-Florouracil (5 FU) molecule in DMSO (max 0.1% DMSO) separately at concentration 0.25, 0.50, 1.00, 1.50, 2.00, 2.50, 3.75, and 5.00 µg/mL were carried out. The last volume was adapted to 200 µL by mixture and DMEM and also incubated for 24 h at 37°C with 5% CO2. The antiproliferative activities of the 2, 3, 4 and [Ag(CN)2]^− were determined with using BrdU Cell proliferation ELISA Kit conforming to manufacturer’s assay.
# (§4) IC50 values the concentration of a factor which required for other method of in vitro.
# C6 = assay type: cell-based
# Text: as §1, §2, §3, §4
# HeLa = assay type: cell-based; details: IC50 of normal cells (Vero) divided by IC50 of HeLa
# Text: as §1, §2, §3, §4
Compound,Tumor specificity index HT29 (HT29),Tumor specificity index C6 (C6),Tumor specificity index HT29 (HT29; IC50 of normal cells (Vero) divided by IC50 of HT29),Tumor specificity index HeLa (HeLa),Tumor specificity index C6 (C6; IC50 of normal cells (Vero) divided by IC50 of C6)
[Zn(N-bishydeten)Ag3(CN)5] [Complex 3],1.29,0.92,,,
[Cd(N-bishydeten)]4[Ag(CN)2]8[Ag(CN)]2 [Complex 4],1.31,1.05,,,
[Cu(N-bishydeten)Ag3(CN)5] [Complex 2],3.23,2.96,,,
"O=c1[nH]cc(F)c(=O)[nH]1 [5FU, 5-fluorouracil, reference compound]",,,1.00,0.94,1.19

# Where two headings read alike, the source gives them in different places.
